The supplement of paper PMC6411743
± gives the standard deviation of the averaged measurements. The entries are a selection whose mix differs from that of the whole data set.

Chains of the proteins cited; added tags and fusions are not shown. Lines headed by an entry give the natural chain unless they say otherwise; changes in a name come on top.
UniProt P53611: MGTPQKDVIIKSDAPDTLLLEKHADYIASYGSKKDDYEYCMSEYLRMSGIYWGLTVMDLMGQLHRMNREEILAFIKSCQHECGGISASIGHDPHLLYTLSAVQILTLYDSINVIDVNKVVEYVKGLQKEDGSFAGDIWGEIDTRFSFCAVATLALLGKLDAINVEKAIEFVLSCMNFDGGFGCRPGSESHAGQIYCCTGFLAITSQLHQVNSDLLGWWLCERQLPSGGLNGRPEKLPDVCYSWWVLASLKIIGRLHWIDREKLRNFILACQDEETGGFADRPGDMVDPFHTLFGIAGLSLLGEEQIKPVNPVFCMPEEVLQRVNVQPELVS
UniProt P61073, whole entry: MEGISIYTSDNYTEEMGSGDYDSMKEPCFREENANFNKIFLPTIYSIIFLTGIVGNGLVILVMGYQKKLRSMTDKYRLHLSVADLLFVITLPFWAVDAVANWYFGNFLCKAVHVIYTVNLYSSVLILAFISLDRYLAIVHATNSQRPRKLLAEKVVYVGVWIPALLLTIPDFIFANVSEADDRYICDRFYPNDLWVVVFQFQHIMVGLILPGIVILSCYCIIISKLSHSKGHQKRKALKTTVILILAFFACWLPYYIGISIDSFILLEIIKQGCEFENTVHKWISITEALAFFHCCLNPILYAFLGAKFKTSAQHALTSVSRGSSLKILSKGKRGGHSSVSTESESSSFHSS
UniProt P62491: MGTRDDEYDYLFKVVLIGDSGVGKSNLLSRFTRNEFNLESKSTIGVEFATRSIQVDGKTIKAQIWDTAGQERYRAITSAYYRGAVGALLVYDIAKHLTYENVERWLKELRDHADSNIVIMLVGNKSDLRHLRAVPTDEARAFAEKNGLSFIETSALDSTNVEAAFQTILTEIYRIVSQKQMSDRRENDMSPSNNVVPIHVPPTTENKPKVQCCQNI
UniProt Q00613: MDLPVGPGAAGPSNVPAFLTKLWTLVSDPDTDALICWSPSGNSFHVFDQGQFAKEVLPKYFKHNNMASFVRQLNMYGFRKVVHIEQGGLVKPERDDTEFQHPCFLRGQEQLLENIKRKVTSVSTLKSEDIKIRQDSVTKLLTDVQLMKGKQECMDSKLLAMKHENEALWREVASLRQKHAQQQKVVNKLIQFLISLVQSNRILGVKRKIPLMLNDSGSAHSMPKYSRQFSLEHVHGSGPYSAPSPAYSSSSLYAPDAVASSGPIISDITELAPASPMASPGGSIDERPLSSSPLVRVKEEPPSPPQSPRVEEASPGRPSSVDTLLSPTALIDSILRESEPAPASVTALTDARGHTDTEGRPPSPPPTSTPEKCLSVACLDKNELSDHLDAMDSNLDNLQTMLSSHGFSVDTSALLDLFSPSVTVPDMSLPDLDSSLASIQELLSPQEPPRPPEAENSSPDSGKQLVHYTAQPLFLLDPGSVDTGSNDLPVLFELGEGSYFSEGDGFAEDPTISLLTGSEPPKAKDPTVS
UniProt P60981: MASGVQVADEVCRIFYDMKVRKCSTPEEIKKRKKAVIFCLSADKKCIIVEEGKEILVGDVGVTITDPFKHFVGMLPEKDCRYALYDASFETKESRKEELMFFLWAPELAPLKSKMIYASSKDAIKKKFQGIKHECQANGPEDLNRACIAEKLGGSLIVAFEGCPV
UniProt P53365: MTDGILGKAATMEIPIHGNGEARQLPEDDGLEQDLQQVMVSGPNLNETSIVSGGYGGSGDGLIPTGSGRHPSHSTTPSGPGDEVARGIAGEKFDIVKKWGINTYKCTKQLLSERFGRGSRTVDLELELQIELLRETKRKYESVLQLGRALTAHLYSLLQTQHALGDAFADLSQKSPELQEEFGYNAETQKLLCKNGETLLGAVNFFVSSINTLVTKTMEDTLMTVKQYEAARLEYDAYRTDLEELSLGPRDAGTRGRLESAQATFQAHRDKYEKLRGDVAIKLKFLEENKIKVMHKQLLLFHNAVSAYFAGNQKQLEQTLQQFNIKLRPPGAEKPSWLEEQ
UniProt P53618: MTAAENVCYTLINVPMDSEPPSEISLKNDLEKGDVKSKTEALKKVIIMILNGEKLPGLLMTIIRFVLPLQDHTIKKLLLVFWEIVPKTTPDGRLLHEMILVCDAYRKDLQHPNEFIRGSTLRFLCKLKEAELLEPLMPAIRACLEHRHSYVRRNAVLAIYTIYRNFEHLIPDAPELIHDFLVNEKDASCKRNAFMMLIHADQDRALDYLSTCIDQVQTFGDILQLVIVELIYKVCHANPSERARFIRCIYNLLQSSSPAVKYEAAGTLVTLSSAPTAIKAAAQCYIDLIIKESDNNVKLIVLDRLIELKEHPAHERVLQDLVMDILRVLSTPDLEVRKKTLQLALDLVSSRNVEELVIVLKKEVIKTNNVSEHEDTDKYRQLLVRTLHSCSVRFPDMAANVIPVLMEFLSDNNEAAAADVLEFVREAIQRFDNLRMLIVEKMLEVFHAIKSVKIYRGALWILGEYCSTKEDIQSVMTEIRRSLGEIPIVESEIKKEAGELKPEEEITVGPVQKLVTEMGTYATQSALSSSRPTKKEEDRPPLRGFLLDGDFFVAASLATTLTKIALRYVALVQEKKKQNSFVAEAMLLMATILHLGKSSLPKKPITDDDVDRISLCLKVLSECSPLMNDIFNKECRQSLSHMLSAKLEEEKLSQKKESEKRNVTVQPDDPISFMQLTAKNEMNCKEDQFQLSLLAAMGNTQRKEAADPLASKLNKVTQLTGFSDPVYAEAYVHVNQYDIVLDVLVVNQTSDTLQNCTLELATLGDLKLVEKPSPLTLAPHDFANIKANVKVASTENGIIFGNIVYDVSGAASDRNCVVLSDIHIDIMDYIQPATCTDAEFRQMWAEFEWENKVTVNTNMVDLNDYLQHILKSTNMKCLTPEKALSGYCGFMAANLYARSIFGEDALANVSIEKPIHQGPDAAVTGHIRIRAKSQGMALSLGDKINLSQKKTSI
UniProt P54578: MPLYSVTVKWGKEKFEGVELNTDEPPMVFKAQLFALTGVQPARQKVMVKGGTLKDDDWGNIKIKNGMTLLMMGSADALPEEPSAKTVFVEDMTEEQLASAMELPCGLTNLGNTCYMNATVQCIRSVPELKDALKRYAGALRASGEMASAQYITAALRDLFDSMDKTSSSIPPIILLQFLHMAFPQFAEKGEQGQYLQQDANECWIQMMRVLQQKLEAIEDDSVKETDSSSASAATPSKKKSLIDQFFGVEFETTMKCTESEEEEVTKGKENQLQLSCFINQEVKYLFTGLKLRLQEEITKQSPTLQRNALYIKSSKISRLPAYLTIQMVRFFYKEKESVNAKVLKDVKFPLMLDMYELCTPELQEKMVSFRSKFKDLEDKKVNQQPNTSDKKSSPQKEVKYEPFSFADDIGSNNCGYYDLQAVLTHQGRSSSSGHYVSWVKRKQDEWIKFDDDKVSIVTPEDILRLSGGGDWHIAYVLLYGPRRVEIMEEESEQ
UniProt P57081: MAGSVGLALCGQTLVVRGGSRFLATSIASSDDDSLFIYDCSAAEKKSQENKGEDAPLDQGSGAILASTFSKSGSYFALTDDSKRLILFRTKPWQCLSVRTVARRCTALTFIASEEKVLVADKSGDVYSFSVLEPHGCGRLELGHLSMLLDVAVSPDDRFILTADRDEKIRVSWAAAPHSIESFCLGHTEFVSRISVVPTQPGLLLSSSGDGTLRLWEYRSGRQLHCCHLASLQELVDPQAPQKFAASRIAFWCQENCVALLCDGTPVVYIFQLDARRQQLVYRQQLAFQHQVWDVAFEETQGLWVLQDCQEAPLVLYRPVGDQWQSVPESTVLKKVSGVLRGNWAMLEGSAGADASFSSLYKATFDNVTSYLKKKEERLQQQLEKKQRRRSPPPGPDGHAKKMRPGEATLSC
UniProt P55263: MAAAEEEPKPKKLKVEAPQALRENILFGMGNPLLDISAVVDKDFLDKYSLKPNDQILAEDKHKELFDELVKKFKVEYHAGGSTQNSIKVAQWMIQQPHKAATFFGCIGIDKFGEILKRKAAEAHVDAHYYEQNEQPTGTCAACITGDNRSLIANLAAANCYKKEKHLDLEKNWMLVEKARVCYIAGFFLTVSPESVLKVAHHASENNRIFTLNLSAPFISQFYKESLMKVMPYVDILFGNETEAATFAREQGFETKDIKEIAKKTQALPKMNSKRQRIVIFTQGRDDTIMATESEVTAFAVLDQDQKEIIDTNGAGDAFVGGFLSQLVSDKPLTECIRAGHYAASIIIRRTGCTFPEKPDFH
UniProt P55160: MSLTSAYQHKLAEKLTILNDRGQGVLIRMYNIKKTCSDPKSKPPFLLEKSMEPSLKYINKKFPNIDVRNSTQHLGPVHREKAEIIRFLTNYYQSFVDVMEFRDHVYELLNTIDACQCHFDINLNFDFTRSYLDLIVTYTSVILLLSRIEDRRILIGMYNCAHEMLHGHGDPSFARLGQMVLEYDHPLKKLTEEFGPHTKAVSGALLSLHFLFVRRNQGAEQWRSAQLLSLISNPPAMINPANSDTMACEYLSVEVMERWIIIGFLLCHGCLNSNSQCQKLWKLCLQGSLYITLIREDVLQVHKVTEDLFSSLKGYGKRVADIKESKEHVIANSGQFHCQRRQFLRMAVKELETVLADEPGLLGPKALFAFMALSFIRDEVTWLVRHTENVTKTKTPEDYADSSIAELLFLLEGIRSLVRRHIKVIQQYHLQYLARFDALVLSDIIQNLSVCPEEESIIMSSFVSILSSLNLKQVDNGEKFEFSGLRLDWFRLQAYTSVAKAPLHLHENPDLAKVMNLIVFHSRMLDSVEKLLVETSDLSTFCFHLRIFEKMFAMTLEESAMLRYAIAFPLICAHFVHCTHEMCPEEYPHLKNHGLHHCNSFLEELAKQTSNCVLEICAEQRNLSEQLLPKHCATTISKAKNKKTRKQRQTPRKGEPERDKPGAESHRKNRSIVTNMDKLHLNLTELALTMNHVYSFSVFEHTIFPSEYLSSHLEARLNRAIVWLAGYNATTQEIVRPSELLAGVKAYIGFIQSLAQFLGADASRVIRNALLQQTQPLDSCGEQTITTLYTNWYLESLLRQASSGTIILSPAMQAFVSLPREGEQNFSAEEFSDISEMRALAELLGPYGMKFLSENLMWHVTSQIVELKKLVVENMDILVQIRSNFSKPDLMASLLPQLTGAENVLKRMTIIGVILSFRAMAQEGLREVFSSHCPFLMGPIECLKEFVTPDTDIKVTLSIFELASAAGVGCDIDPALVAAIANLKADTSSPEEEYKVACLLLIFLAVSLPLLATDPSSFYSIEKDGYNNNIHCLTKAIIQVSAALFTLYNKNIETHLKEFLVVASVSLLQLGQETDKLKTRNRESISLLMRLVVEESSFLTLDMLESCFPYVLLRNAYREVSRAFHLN
UniProt P60604: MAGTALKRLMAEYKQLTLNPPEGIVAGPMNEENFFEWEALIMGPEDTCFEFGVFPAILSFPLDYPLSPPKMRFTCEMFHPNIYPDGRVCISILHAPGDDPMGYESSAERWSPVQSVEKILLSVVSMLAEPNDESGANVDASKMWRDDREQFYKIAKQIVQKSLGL
UniProt Q00059: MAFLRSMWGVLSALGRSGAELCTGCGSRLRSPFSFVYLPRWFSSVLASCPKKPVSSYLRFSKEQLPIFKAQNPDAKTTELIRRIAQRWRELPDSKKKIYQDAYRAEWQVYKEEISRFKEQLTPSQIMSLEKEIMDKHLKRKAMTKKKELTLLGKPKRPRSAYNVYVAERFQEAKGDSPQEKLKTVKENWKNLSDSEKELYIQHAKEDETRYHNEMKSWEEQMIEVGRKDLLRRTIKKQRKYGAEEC
UniProt P62877, whole entry, looked up: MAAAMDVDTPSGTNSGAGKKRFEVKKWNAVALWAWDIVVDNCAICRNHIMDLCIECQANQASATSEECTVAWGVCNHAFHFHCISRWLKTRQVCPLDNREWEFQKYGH
UniProt P56377: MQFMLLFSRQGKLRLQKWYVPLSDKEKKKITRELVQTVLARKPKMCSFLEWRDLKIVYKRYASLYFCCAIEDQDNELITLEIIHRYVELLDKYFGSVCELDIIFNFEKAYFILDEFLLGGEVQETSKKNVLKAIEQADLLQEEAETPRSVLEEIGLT
UniProt P61088: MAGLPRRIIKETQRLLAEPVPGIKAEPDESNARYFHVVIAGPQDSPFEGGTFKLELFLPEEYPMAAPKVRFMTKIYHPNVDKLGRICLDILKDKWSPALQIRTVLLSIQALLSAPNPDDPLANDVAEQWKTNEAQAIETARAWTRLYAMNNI
UniProt P61081: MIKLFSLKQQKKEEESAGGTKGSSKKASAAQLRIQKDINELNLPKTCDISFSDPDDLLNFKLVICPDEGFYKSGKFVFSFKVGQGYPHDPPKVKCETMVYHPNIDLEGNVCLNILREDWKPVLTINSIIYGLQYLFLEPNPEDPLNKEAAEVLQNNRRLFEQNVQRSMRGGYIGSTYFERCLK
UniProt P63167, whole entry: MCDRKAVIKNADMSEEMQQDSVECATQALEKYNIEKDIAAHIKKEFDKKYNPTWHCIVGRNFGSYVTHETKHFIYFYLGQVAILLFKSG
UniProt P61224: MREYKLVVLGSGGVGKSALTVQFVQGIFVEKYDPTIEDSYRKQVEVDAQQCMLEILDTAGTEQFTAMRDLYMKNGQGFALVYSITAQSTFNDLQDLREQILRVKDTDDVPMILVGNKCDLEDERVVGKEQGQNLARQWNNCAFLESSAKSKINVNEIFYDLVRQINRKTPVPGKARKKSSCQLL

Compound: Nc1ncnc2c1ncn2[C@@H]1O[C@H](COP(=O)(O)OP(=O)(O)OP(=O)(O)O)[C@@H](O)[C@H]1O [adenosine triphosphate]
Assay: NP40-soluble protein abundance relative to vehicle (solubility fold change) (ratio); higher = more soluble protein in presence of ATP
In short: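 Jurkat crude lysate prepared with a Dounce homogeniser was treated at eight concentrations spanning 0.1 to 10 mM, 10 min at room temperature then 3 min at 37 °C. Solubilisation with 0.8% NP40 and benzonase and ultracentrifugation preceded TMT labelling of the supernatant for LC-MS/MS. Fold change against the detergent-processed vehicle was determined per replicate from vsn-normalised intensities, across three independent experiments.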

Row | Target | NP40-soluble protein abundance (concentration: 1mM) | NP40-soluble protein abundance (concentration: 2mM) | NP40-soluble protein abundance (concentration: 4mM) | NP40-soluble protein abundance (concentration: 6mM) | NP40-soluble protein abundance (concentration: 8mM) | NP40-soluble protein abundance (concentration: 10mM)
1 | UniProt P61764 and related entries | 0.9886 ± 0.0036 | 0.963 ± 0.011 | 0.943 ± 0.025 | 0.944 ± 0.039 | 0.966 ± 0.02 | 0.931 ± 0.013
2 | RABGGTB (UniProt P53611) | 1.07 ± 0.17 | 1.03 ± 0.071 | 0.983 ± 0.11 | 0.944 ± 0.22 | 1.01 ± 0.1 | 1 ± 0.051
3 | UniProt P55210 and related entries | 0.973 ± 0.028 | 0.961 ± 0.018 | 0.938 ± 0.04 | 0.987 ± 0.031 | 0.918 ± 0.016 | 0.935 ± 0.028
4 | UniProt P61073 and related entries | 0.966 ± 0.096 | 0.904 ± 0.074 | 0.876 ± 0.06 | 0.836 ± 0.12 | 0.837 ± 0.034 | 0.89 ± 0.068
5 | UniProt P62491 | 1.28 ± 0.088 | 1.22 ± 0.062 | 1.15 ± 0.11 | 1.35 ± 0.17 | 1.03 ± 0.096 | 1.14 ± 0.08
6 | UniProt Q00613 and related entries | 0.953 ± 0.049 | 0.944 ± 0.031 | 0.944 ± 0.013 | 0.979 ± 0.022 | 0.961 ± 0.025 | 0.907 ± 0.039
7 | DSTN (UniProt P60981) | 0.961 ± 0.049 | 0.946 ± 0.015 | 0.891 ± 0.028 | 0.93 ± 0.069 | 0.904 ± 0.043 | 0.906 ± 0.05
8 | STX17 (UniProt P56962) | 0.992 ± 0.012 | 0.9767 ± 0.0076 | 0.963 ± 0.027 | 0.977 ± 0.041 | 0.951 ± 0.028 | 0.971 ± 0.019
9 | UniProt P53365 and related entries | 0.946 ± 0.042 | 0.979 ± 0.044 | 0.9428 ± 0.0078 | 0.933 ± 0.029 | 0.926 ± 0.043 | 0.923 ± 0.061
10 | COPB1 (UniProt P53618) | 1.04 ± 0.1 | 1.01 ± 0.059 | 1 ± 0.038 | 0.935 ± 0.073 | 1.01 ± 0.019 | 1.01 ± 0.044
11 | USP14 (UniProt P54578) | 0.985 ± 0.038 | 0.985 ± 0.016 | 0.942 ± 0.026 | 0.988 ± 0.032 | 0.95 ± 0.025 | 0.952 ± 0.031
12 | UniProt P57081 and related entries | 1.02 ± 0.1 | 1.04 ± 0.091 | 1.03 ± 0.1 | 0.946 ± 0.039 | 0.968 ± 0.079 | 0.996 ± 0.021
13 | UniProt P60866 and related entries | 0.877 ± 0.029 | 0.829 ± 0.08 | 0.767 ± 0.092 | 0.775 ± 0.1 | 0.671 ± 0.1 | 0.751 ± 0.082
14 | UniProt P83876 | 1.13 ± 0.1 | 1.15 ± 0.071 | 1.15 ± 0.091 | 1.15 ± 0.072 | 1.22 ± 0.12 | 1.22 ± 0.058
15 | ADK (UniProt P55263) | 0.976 ± 0.043 | 0.988 ± 0.032 | 0.931 ± 0.024 | 0.937 ± 0.076 | 0.934 ± 0.011 | 0.964 ± 0.02
16 | NCKAP1L (UniProt P55160) | 1.06 ± 0.13 | 1.02 ± 0.099 | 0.997 ± 0.065 | 0.913 ± 0.11 | 1.04 ± 0.047 | 0.985 ± 0.07
17 | UniProt P54920 and related entries | 0.987 ± 0.09 | 0.977 ± 0.031 | 0.936 ± 0.034 | 0.955 ± 0.038 | 0.916 ± 0.019 | 0.874 ± 0.063
18 | UniProt P60604 and related entries | 1.03 ± 0.085 | 1.01 ± 0.1 | 1.03 ± 0.12 | 0.96 ± 0.11 | 1.04 ± 0.11 | 0.969 ± 0.12
19 | UniProt P63272 | 1.002 ± 0.0012 | 0.972 ± 0.011 | 1.02 ± 0.1 | 1.05 ± 0.1 | 0.977 ± 0.071 | 0.933 ± 0.014
20 | HNRNPH2 (UniProt P55795) | 1.04 ± 0.064 | 1.04 ± 0.046 | 1.05 ± 0.037 | 1.01 ± 0.059 | 1.07 ± 0.052 | 1.04 ± 0.068
21 | TFAM (UniProt Q00059) | 0.94 ± 0.14 | 0.915 ± 0.071 | 0.909 ± 0.091 | 0.958 ± 0.12 | 0.955 ± 0.018 | 0.815 ± 0.18
22 | UniProt P61163 | 1.04 ± 0.038 | 0.999 ± 0.03 | 0.996 ± 0.022 | 0.959 ± 0.046 | 1.03 ± 0.046 | 0.97 ± 0.033
23 | MRPS15 (UniProt P82914) | 0.947 ± 0.083 | 0.894 ± 0.096 | 0.884 ± 0.11 | 0.91 ± 0.24 | 0.897 ± 0.16 | 0.842 ± 0.11
24 | UniProt P62877 | 0.98 ± 0.026 | 0.986 ± 0.029 | 0.887 ± 0.01 | 0.991 ± 0.057 | 0.922 ± 0.026 | 0.9141 ± 0.0062
25 | AP1S2 (UniProt P56377) | 0.936 ± 0.082 | 0.953 ± 0.052 | 1.02 ± 0.056 | 1 ± 0.16 | 0.968 ± 0.055 | 0.975 ± 0.061
26 | UniProt P63279 | 0.954 ± 0.1 | 0.984 ± 0.05 | 0.969 ± 0.043 | 0.985 ± 0.065 | 0.967 ± 0.02 | 0.903 ± 0.065
27 | UniProt P61088 | 0.983 ± 0.041 | 0.968 ± 0.031 | 0.956 ± 0.022 | 0.918 ± 0.07 | 0.956 ± 0.027 | 0.9 ± 0.068
28 | UniProt P61081 | 0.982 ± 0.03 | 0.962 ± 0.021 | 0.919 ± 0.027 | 0.978 ± 0.029 | 0.948 ± 0.015 | 0.931 ± 0.028
29 | UniProt P63167 | 1.08 ± 0.19 | 1.03 ± 0.061 | 0.98 ± 0.053 | 1.11 ± 0.11 | 1.04 ± 0.03 | 0.968 ± 0.074
30 | UniProt P61224 and related entries | 0.939 ± 0.12 | 0.96 ± 0.055 | 0.936 ± 0.061 | 1.01 ± 0.042 | 0.921 ± 0.048 | 0.9357 ± 0.0039

A second format for part of the listing above.
Row	Target	NP40-soluble protein abundance (concentration: 1mM)	NP40-soluble protein abundance (concentration: 2mM)	NP40-soluble protein abundance (concentration: 4mM)	NP40-soluble protein abundance (concentration: 6mM)	NP40-soluble protein abundance (concentration: 8mM)	NP40-soluble protein abundance (concentration: 10mM)
18	UniProt P60604 and related entries	1.03 ± 0.085	1.01 ± 0.1	1.03 ± 0.12	0.96 ± 0.11	1.04 ± 0.11	0.969 ± 0.12
25	AP1S2 (UniProt P56377)	0.936 ± 0.082	0.953 ± 0.052	1.02 ± 0.056	1 ± 0.16	0.968 ± 0.055	0.975 ± 0.061
